The record followed here is article PMC10097704.

Sequences of proteins named here, by UniProt entry; tags and fusion partners are left off.
UniProt Q9UER7: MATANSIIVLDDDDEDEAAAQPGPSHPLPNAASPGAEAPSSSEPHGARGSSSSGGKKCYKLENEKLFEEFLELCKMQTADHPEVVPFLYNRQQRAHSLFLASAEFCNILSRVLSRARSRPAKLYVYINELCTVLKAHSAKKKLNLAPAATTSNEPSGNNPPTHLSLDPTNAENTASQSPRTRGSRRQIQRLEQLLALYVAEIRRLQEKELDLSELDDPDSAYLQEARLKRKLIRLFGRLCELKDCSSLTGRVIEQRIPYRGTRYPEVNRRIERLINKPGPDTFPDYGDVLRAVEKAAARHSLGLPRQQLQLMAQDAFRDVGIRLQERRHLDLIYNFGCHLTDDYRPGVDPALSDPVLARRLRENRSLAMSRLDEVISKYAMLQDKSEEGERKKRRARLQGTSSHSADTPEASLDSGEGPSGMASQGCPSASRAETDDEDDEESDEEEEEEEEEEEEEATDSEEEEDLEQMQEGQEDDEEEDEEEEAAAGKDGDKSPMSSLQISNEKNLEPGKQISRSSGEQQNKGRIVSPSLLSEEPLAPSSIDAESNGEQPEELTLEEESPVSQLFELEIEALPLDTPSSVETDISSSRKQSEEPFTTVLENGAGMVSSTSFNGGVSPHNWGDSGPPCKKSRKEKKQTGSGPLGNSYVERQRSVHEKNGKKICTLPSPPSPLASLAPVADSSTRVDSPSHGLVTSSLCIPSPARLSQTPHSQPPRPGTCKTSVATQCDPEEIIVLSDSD

No constants are given. Whether binding was seen depends on the method and setting. In cells and extracts the contact can be indirect. Some binding calls cover weakened binding; strength is not graded here.

In assay [1] the target is T1, transfected full-length SREBP1 (UniProt P36956).
T1 sequence: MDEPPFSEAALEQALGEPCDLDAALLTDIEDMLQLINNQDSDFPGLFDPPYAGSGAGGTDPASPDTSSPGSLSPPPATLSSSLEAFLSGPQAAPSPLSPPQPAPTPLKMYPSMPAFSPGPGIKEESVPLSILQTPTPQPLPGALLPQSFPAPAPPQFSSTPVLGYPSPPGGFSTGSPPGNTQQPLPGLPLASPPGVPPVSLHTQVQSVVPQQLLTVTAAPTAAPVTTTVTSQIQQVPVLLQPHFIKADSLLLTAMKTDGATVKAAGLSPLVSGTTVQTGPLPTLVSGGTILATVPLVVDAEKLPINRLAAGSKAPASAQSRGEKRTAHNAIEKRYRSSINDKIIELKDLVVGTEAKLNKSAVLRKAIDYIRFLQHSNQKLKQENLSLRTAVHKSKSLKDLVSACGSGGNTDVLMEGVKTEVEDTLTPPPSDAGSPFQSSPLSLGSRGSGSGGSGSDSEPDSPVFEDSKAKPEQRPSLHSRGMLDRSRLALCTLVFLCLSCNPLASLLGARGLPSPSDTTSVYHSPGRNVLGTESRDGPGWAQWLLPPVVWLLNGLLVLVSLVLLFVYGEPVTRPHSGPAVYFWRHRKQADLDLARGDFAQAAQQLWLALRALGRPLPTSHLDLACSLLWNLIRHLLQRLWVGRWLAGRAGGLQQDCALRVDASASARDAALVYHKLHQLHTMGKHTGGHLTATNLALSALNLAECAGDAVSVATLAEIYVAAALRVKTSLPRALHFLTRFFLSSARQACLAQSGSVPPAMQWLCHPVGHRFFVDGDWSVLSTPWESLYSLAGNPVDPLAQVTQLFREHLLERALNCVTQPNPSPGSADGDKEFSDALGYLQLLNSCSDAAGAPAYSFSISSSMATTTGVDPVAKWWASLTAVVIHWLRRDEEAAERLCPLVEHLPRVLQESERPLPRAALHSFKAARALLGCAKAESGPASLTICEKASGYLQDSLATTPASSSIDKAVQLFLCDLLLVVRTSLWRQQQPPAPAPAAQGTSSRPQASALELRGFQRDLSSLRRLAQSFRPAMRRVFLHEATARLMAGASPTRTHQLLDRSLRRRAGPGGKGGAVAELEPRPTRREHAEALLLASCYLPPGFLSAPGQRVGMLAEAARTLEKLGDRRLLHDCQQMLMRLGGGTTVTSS
The assay can be described thus: co-IP; transiently expressed FLAG-tagged mature SREBP1a, SREBP1c or SREBP2, or transfected full-length SREBP1 and SREBP2; endogenous or exogenous DAXX detected in the precipitate (Supplementary Fig. S6a, b).

In assay [2] the target is T2, transfected full-length SREBP2 (UniProt Q12772).
T2 sequence: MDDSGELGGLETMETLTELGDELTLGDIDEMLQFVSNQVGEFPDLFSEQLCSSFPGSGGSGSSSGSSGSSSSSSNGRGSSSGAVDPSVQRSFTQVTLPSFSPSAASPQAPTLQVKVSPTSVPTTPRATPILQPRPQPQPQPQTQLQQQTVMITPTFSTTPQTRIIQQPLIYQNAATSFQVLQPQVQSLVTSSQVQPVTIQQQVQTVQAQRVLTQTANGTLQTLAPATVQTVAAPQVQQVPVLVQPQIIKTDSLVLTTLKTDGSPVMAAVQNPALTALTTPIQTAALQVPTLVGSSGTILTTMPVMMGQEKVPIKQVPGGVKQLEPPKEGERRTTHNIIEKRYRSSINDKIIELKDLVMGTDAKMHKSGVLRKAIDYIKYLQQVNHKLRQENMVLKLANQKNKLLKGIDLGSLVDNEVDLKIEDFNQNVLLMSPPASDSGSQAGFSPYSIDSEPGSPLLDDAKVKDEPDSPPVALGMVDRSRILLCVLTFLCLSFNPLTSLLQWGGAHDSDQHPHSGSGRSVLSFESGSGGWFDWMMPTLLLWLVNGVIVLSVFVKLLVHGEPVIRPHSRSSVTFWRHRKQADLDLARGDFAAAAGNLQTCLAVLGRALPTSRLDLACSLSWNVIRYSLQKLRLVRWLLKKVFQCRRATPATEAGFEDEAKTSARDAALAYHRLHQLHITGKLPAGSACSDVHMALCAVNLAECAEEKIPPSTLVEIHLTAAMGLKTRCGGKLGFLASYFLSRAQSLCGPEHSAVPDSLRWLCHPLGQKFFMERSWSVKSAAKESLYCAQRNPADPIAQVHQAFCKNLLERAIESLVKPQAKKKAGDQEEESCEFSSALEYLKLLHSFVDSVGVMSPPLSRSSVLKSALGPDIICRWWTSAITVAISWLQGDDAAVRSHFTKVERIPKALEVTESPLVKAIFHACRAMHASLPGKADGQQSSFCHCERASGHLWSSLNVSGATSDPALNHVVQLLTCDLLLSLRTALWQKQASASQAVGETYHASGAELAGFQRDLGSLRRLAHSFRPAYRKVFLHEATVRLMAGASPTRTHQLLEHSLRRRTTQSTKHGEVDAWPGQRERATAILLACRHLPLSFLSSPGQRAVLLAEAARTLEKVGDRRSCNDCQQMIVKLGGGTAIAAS
The description is as above.

Turning to “exogenous DAXX (Supplementary Fig. S6) (from UniProt Q9UER7 1-740)”, the binding entry in assay [1] and in assay [2] was “binds” each time.

“DAXX (endogenous) (from UniProt Q9UER7 1-740)”: the binding entry in assay [1] and in assay [2] was “binds” in each case.
